Measurements as given in PubChem BioAssay AID493014 (National Center for Advancing Translational Sciences (NCATS), 2011).
The other results are listed elsewhere or left out. The main result of the screen is listed elsewhere. These columns were measured beside it and carry no call. Most of these compounds were active or inconclusive in the main read-out, so they are no random draw. The note in brackets gives the kind of curve behind each potency; many fits are weak.

Experiment: qHTS Assay to Find Inhibitors of Chronic Active B-Cell Receptor Signaling
Settings: ABC-DLBCL IkBa-CBG/CBR reporter, luminescence ratio (green luciferase fused to IkBa over red control in TMD8 lymphoma cells), 4 h
How it was run: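 TMD8 ABC-DLBCL cells carrying doxycycline-inducible green luciferase fused to IkappaBalpha plus unfused red luciferase were exposed to compounds (up to 46 uM) for 4 hrs at 37C. Activity came from the overlap-corrected green/red luminescence ratio.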

[1] = measured here: CBR red luminescence, cell number
[2] = measured here: IkBa-CBG green luminescence

Compound	AC50 [1]	AC50 [2]
O=[N+]([O-])c1ccc2c(c1)C(c1ccccc1)=NCCN2	35.5 µM [falling, single point]	–
CCOC(=O)c1cc2c(cn1)[nH]c1ccccc12	12.6 µM [falling, partial curve, poor fit]	–
CCC(=NCCc1c[nH]c2ccccc12)c1c(O)n(C)c(=O)n(C)c1=O	3.26 µM [rising, single point]	–
COC(=O)N(c1ccc(OC)cc1)P1(=S)OCCC(C)O1 (configuration not stated)	5.8 µM [rising, full curve, poor fit]	–
CC(C(=O)c1ccc2ccccc2c1)N1CCCCC1 (configuration not stated)	5.01 µM [rising, full curve, poor fit]	–
CC(C)CC(NS(=O)(=O)c1ccc2c(c1)oc(=O)n2C)C(=O)NCc1cccnc1 (configuration not stated)	1.84 µM [rising, single point]	–
O=C1NC(=O)C(=Cc2coc3ccccc3c2=O)C(=O)N1	22.4 µM [falling, partial curve]	–
O=C(CSc1nnc(-c2ccc(O)cc2)o1)N1CCOCC1	25.1 µM [falling, partial curve, poor fit]	–
Cn1c2ccccc2c2c(C(=O)N3CCC4(CC3)OCCO4)cn(C3CCCCC3)c(=O)c21	3.26 µM [rising, partial curve, poor fit]	–
CCCCCc1nc2ccccc2c(=O)n1-c1ccc(Cl)cc1[N+](=O)[O-]	6.31 µM [falling, single point]	–
O=c1c2ccccc2nc(/C=C/c2ccccc2F)n1-c1ccccc1O	11.2 µM [falling, partial curve, poor fit]	–
COc1ccccc1Oc1coc2cc(OC(=O)N3CCOCC3)ccc2c1=O	4.61 µM [rising, single point]	–
CCN1CCN(Cc2ccccc2C)CC1	6.51 µM [rising, single point]	–
CC(C)CCOP(=O)(c1ccc(N(C)C)cc1)C(O)c1ccccc1 (configuration not stated)	10 µM [falling, single point]	–
CN1CCC(N(C)c2nc(-c3ccccc3)nc3ccccc23)CC1	29.1 µM [falling, single point]	–
COc1ccc2c(CN3CC=C(c4ccccc4)CC3)cc(=O)oc2c1	7.94 µM [falling, partial curve, poor fit]	–
COc1cccc(N=Nc2c(O)[nH]c(=S)[nH]c2=O)c1	8.91 µM [falling, partial curve, poor fit]	–
Cc1ccc(-n2c(C)cc(/C=C3/C(=O)NC(=O)N(Cc4ccco4)C3=O)c2C)cc1	29.1 µM [falling, single point]	–
COC(=O)C1=C(c2cccc(OCc3ccccc3)c2)C[C@@H]2CC[C@H]1N2C(=O)NCc1cc(C)oc1C(F)(F)F	32.6 µM [falling, partial curve, poor fit]	–
COC(=O)C1=C(c2ccc(Cl)c(C(F)(F)F)c2)C[C@@H]2CC[C@H]1N2C(=O)NCCOc1ccccc1	29.1 µM [falling, single point]	–

Given bar-delimited: three of the compounds above.
Compound | AC50 [1] | AC50 [2]
O=C1NC(=O)C(=Cc2coc3ccccc3c2=O)C(=O)N1 | 22.4 µM [falling, partial curve] | –
COC(=O)C1=C(c2cccc(OCc3ccccc3)c2)C[C@@H]2CC[C@H]1N2C(=O)NCc1cc(C)oc1C(F)(F)F | 32.6 µM [falling, partial curve, poor fit] | –
COC(=O)C1=C(c2ccc(Cl)c(C(F)(F)F)c2)C[C@@H]2CC[C@H]1N2C(=O)NCCOc1ccccc1 | 29.1 µM [falling, single point] | –

(continued)

Compound	AC50 [1]	AC50 [2]
CC(C)N1C(=O)NC(=O)C2(Cc3cc([N+](=O)[O-])ccc3N(C)C2c2ccccc2)C1=O (configuration not stated)	29.1 µM [falling, single point]	–
Cc1oc(-c2ccccc2Cl)nc1CN1C(=O)CN=C(c2ccccc2)c2ccccc21	25.9 µM [falling, partial curve, poor fit]	–
COCCOC(=O)c1c(N)n(Cc2ccc(OC)cc2)c2nc3ccccc3nc12	0.731 µM [falling, full curve, poor fit]	–
Cc1cccc(N2C(=O)NC(=O)/C(=C\c3cccn3-c3ccc(Cl)cc3)C2=O)c1	31.6 µM [rising, single point]	–
C=C1C(=O)O[C@H]2C[C@@H](C)[C@@H]3C=CC(=O)[C@@]3(C)C[C@H]12	1.58 µM [falling, full curve]	20 µM [rising, partial curve, poor fit]
O=C(NCc1cccnc1)Nc1ccc([N+](=O)[O-])cc1	20 µM [rising, single point]	–
C[C@@H]1CC[C@H]2[C@@H](C)C(=O)O[C@@H]3O[C@@]4(C)CC[C@@H]1[C@]32OO4	1.58 µM [falling, partial curve, poor fit]	–
CCOc1ccc2nc(N=Nc3c(O)[nH]c(=S)[nH]c3=O)sc2c1	3.55 µM [rising, full curve, poor fit]	–
O=C(NC(NC(=S)Nc1cccc(Cl)c1)C(Cl)(Cl)Cl)OCc1ccccc1 (configuration not stated)	22.4 µM [falling, single point]	–
COc1ccc(C2C([N+](=O)[O-])=C(N)Oc3c2c(=O)oc2ccccc32)cc1 (configuration not stated)	0.184 µM [falling, full curve]	–
O=C(Cn1c(=O)oc2cc(S(=O)(=O)N3CCCCC3)ccc21)N1CCc2ccccc2C1	6.51 µM [rising, single point]	–
OCCN1CCN(c2nc(-c3ccccc3O)nc3ccccc23)CC1	14.1 µM [falling, single point]	–
CN1CCN(c2ccc([N+](=O)[O-])c(N3CCCCC3)c2)CC1	22.4 µM [rising, single point]	–
O=C1CSC(c2ccccc2[N+](=O)[O-])N1c1ccc(O)cc1 (configuration not stated)	22.4 µM [falling, single point]	–
Cc1ccc(C(O)(c2ccc(C)c(C)c2)C2CN3CCC2CC3)cc1C (configuration not stated)	14.1 µM [falling, single point]	–
COC(=O)C(Cc1ccc(N(CCCl)CCCl)cc1)N=Cc1ccccc1O (configuration not stated)	35.5 µM [falling, single point]	–
COC(=O)C1=C(c2cccc(OCc3ccccc3)c2)C[C@@H]2CC[C@H]1N2C(=O)NCc1ccccc1OC	20.6 µM [falling, single point]	–
COC(=O)C1=C(c2ccc(F)cc2OCc2ccccc2)C[C@@H]2CC[C@H]1N2C(=O)NCc1ccc(F)cc1	16.4 µM [falling, partial curve]	–
COC12CCC3(CC1C(C)(O)C(C)(C)C)[C@H]1Cc4ccc(OC5OC(C(=O)O)[C@@H](O)C(O)[C@H]5O)c5c4[C@@]3(CCN1CC1CC1)C2O5 (some centres not stated)	16.4 µM [rising, partial curve, poor fit]	–
CC(C)C1(C)N=C(c2ncccc2C(=O)O)NC1=O (configuration not stated)	0.146 µM [rising, full curve, poor fit]	–

Compound	AC50 [1]	AC50 [2]
NCC(CC(=O)O)C1CCCCC1 (configuration not stated)	23.1 µM [rising, partial curve, poor fit]	–
CCC(C)Nc1cc(C)c(C#N)c2nc3ccccc3n12 (configuration not stated)	11.2 µM [falling, single point]	–
COc1ccc(CCn2c(O)c(C=NCCCN(C)C)c(=O)[nH]c2=O)cc1OC	29.1 µM [rising, single point]	–
CCCCn1c(NC(=O)c2ccc(Br)o2)c(C(=O)OCC)c2nc3ccccc3nc21	6.51 µM [falling, partial curve, poor fit]	–
CC(C)(C)c1nc(NCc2ccc3c(c2)OCO3)c2nnn(Cc3ccccc3Cl)c2n1	2.59 µM [rising, full curve, poor fit]	–
Cc1ccc(-c2nc3ccccc3c(=O)n2-c2cccc(C)n2)cc1	–	4.47 µM [rising, partial curve, poor fit]
COc1ccc(-c2nc3ccccc3c(=O)n2-c2ccc(OC)cc2)cc1	0.1 µM [rising, full curve, poor fit]	–
O=c1[nH]c(=O)n(-c2cccc3ccccc23)c(O)c1C=NCCCn1ccnc1	11.6 µM [falling, single point]	–
Cn1c(NN=O)nc2ccccc21	35.5 µM [falling, single point]	–
O=C(c1cc(S(=O)(=O)N2CCCCC2)ccc1F)N1CCC2(CC1)OCCO2	29.1 µM [falling, single point]	–
C=CCc1ccc(OC(=O)NC2CCCCC2)c(OC)c1	35.5 µM [rising, single point]	–
CN(C)CCN=Cc1c(O)n(-c2cccc3ccccc23)c(=O)[nH]c1=O	0.651 µM [rising, partial curve, poor fit]	–
NP(=O)(Oc1ccc(Cl)cc1)Oc1ccc(Cl)cc1	8.91 µM [falling, partial curve, poor fit]	–
CCCCC[C@H](O)/C=C/[C@@H]1[C@@H](C/C=C\CCCC(=O)O)[C@H]2CO[C@@H]1C2	3.16 µM [rising, full curve]	–
O=C1NC(=O)C(=Cc2ccccc2OCCOc2ccc([N+](=O)[O-])cc2)C(=O)N1	12.6 µM [rising, single point]	–
CC(N)Cc1c[nH]c2cc3c(cc12)OCCO3 (configuration not stated)	6.51 µM [rising, single point]	–
O=c1c2ccccc2ccc2ccc(P(=O)(O)O)cc12	0.731 µM [rising, full curve, poor fit]	–
COc1ccc2c3c1OC1C(=O)CC[C@@]4(O)[C@@H](C2)N(C)CC[C@]314 (some centres not stated)	16.4 µM [falling, partial curve, poor fit]	–
COC(=O)C1=C(c2ccc(F)cc2F)C[C@@H]2CC[C@H]1N2C(=O)NCCO	20.6 µM [rising, single point]	–
CCCC[C@@H](C)C[C@@H](C)C(=O)N(C)[C@@H](CC(C)C)C(=O)N[C@H](C(=O)N(C)[C@H](C(=O)N1C[C@@H](O)C[C@H]1C(=O)N1C(=O)C=C[C@@H]1C)C(C)C)C(C)OC(C)=O (some centres not stated)	29.1 µM [falling, single point]	0.00517 µM [falling, full curve, poor fit]
